Test results from US20090233858A1.
No constants are given. Whether binding was seen depends on the method and setting. Some results given as binding are weak or reduced against the parent protein; the word gives no strength.

Protein sequences, listed by entry. Tags and fused reporters are not part of them. Lines headed by an entry give the natural chain unless they say otherwise; changes in a name come on top.
UniProt P67775: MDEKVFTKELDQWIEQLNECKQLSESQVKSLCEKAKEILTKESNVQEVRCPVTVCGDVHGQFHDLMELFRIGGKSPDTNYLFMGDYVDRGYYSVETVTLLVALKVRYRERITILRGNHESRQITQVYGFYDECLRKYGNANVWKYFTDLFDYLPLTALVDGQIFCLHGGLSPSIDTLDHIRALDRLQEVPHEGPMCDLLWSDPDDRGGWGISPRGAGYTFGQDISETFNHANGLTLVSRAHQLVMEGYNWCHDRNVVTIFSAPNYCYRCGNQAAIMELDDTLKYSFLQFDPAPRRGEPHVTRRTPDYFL
UniProt P30153: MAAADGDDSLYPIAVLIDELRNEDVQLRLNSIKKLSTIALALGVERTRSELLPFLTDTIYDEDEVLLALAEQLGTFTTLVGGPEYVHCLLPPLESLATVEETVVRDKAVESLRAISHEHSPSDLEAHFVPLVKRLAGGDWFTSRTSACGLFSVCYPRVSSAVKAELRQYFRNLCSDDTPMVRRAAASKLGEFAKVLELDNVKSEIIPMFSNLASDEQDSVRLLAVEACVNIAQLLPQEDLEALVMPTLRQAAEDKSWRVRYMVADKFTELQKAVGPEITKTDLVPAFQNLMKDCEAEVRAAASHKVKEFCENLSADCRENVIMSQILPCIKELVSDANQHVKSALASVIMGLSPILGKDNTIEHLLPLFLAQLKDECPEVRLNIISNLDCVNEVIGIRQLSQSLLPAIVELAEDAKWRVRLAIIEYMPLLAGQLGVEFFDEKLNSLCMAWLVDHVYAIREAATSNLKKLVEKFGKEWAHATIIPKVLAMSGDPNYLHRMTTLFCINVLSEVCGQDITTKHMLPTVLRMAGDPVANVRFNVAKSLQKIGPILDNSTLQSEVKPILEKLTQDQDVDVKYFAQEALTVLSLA

Assays:
[1] = target: PP2A catalytic subunit Cα (residues 1-309) (human) (UniProt P67775); experiment: crystal structure of the holoenzyme
[2] = target: PP2A scaffold subunit Aα (residues 1-589) (human) (UniProt P30153); experiment: crystal structure of the holoenzyme
[3] = target: GST-Aα (Aα residues 1-589 as a fusion protein with glutathione S transferase) (human) (UniProt P30153); experiment: glutathione sepharose pull-out from co-expressed Bα and His6-Cα
[4] = target: heterodimeric PP2A core enzyme (full-length Aα and Cα) (human) (UniProt P30153); experiment: in vitro holoenzyme assembly with methylated core enzyme
[5] = target: heterodimeric PP2A core enzyme (full-length Aα and Cα) (human) (UniProt P30153); experiment: in vitro holoenzyme assembly with unmethylated core enzyme, data not shown
[6] = target: PP2A scaffold subunit Aα (residues 1-589) (human) (UniProt P30153); experiment: biochemical analysis with the isolated A subunit, data not shown; also the crystal structure

Measured: binding

B1: PP2A regulatory subunit Bα (residues 1-447) (protein)
chain: MAGAGGGNDIQWCFSQVKGAVDDDVAEADIISTVEFNHSGELLATGDKGGRVVIFQQEQENKIQSHSRGEYNVYSTFQSHEPEFDYLKSLEIEEKINKIRWLPQKNAAQFLLSTNDKTIKLWKISERDKRPEGYNLKEEDGRYRDPTTVTTLRVPVFRPMDLMVEASPRRIFANAHTYHINSISINSDYETYLSADDLRINLWHLEITDRSFNIVDIKPANMEELTEVITAAEFHPNSCNTFVYSSSKGTIRLCDMRASALCDRHSKLFEEPEDPSNRSFFSEIISSISDVKFSHSGRYMMTRDYLSVKVWDLNMENRPVETYQVHEYLRSKLCSLYENDCIFDKFECCWNGSDSVVMTGSYNNFFRMFDRNTKRDITLEASRENNKPRTVLKPRKVCASGKRKKDEISVDSLDFNKKILHTAWHPKENIIAVATTNNLYIFQDKVN
binds: all assays above
